Data as given in the supplement of paper PMC12889115.
The other results are listed elsewhere or left out. Values are raw readings; no control value is given beside them.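 Primary screen: polymyxin B was added at a level permeabilizing Salmonella outer membranes while sparing inner membranes. DMSO wells, both with and without polymyxin B, established maximum growth. Plate-to-plate variation meant each plate was ranked on its own, and the lowest-OD600 compounds were selected as hits.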

System: Salmonella enterica serovar Typhimurium SL1344
Assay: bacterial growth OD600 after 18 h with compound and polymyxin B; higher = more bacterial growth (less inhibition)
Conditions: 50 µM, Mueller-Hinton broth

| SMILES | bacterial growth OD600 (polymyxin B 0.75 µg/mL) | bacterial growth OD600 (polymyxin B 1 µg/mL) |
| --- | --- | --- |
| COc1cccc(CC(C2CCN(C(=O)c3ccc(C)cc3C)CC2)N(C)C(=O)CC(C)C)c1 (configuration not stated) | 0.006 |  |
| COCC1CCN(C(=O)c2cc(COc3cccc(C(C)=O)c3)[nH]n2)C1 (configuration not stated) |  | 0.954 |
| c1cncc(COC2CCN(Cc3nc(-c4ccc5c(c4)OCO5)no3)CC2)c1 |  | 0.908 |
| CCN1CCN(C2(C(=O)N3CC[C@H](O)C3)Cc3ccccc3C2)CC1 | 0.848 |  |
| COC(=O)C1CCN(C(=O)C2CCC(=O)N(CCCc3ccccc3)C2)CC1 (configuration not stated) |  | 0.965 |
| Cc1nc2ccccc2n1Cc1cc(C(=O)N(C)Cc2ccsc2)n[nH]1 |  | 0.927 |
| CCOC(=O)C1(Cc2ccccc2C)CCCN(C(=O)c2sccc2C)C1 (configuration not stated) |  | 0.009 |
| O=C(c1ccccc1)N1CCCC(Nc2ccc(F)cc2)C1 (configuration not stated) |  | 0.873 |
| CN(CCc1ccccc1)C1(C(=O)NCc2ccncc2)Cc2ccccc2C1 |  | 0.737 |
| Cc1ccc(CN2CCC(CN(C)Cc3ccc(F)cc3F)CC2)o1 |  | 0.771 |
| CCOC(=O)C1(Cc2cccc(OC)c2)CCCN(CCCn2cccn2)C1 (configuration not stated) |  | 0.97 |
| O=C(Nc1cccc(-c2cccc(Cl)c2)c1)C1CCN(Cc2ccncc2)CC1 |  | 0.009 |
| Cc1ccc(OCCN(C)C(=O)C2CC23CCN(Cc2nc4ccccc4s2)CC3)cc1 (configuration not stated) | 0.014 |  |
| CCOC(=O)C1(Cc2cccc(F)c2)CCN(C(=O)C2CCC2)CC1 |  | 0.62 |
| CCOc1ccc(CN2CCC(Oc3ccccc3C(=O)N3CCCC3)CC2)cc1 |  | 1.28 |
| CC1CN(Cc2ccc(OC(F)F)cc2)Cc2ccccc2O1 (configuration not stated) | 0.72 |  |

Grouped by structure: the entries above with fluorine (4)

| SMILES | bacterial growth OD600 (polymyxin B 0.75 µg/mL) | bacterial growth OD600 (polymyxin B 1 µg/mL) |
| --- | --- | --- |
| O=C(c1ccccc1)N1CCCC(Nc2ccc(F)cc2)C1 (configuration not stated) |  | 0.873 |
| Cc1ccc(CN2CCC(CN(C)Cc3ccc(F)cc3F)CC2)o1 |  | 0.771 |
| CCOC(=O)C1(Cc2cccc(F)c2)CCN(C(=O)C2CCC2)CC1 |  | 0.62 |
| CC1CN(Cc2ccc(OC(F)F)cc2)Cc2ccccc2O1 (configuration not stated) | 0.72 |  |

Further compounds follow:

| SMILES | bacterial growth OD600 (polymyxin B 0.75 µg/mL) | bacterial growth OD600 (polymyxin B 1 µg/mL) |
| --- | --- | --- |
| COc1cccc(-c2ccc(NC(=O)C3CCCN(C(=O)C4CCCC4)C3)cc2)c1 (configuration not stated) |  | 0.012 |
| O=C(CCC(F)(F)F)NC1CC(=O)N(CCc2cccc(Cl)c2)C1 (configuration not stated) |  | 0.976 |
| CCOC(=O)C1(Cc2ccccc2F)CCCN(CCCC(F)(F)F)C1 (configuration not stated) | 0.726 |  |
| O=C(NC1CC(=O)N(Cc2ccccc2C(F)(F)F)C1)c1cscn1 (configuration not stated) |  | 0.953 |
| CN(Cc1ccnc2ccccc12)C(=O)c1cn(Cc2ccccc2F)nn1 |  | 0.811 |
| CC1CN(CCC(=O)NCC(C)(C)N2CCOCC2)Cc2cc(Cl)ccc2O1 (configuration not stated) | 0.768 |  |
| O=C(NC1CCCC1)c1ccc(N2CCC(NCc3cnn(-c4cccc(F)c4)c3)CC2)cc1 | 0.775 |  |
| COC(=O)C1CCN(C(=O)CC2(c3ccccc3)CC(=O)N(CCCOc3cccnc3)C2=O)CC1 (configuration not stated) | 0.779 |  |
| CCOc1ccc2nc(N3CCCN(Cc4ccc(Sc5nncn5C)o4)CC3)nc(C)c2c1 | 0.749 |  |
| CCNC(=O)CC(c1ccccc1)c1ccc(OC)cc1 (configuration not stated) |  | 0.789 |
| Cc1cccc(SC2CCN(Cc3nc(-c4ccc5c(c4)OCO5)no3)CC2)c1 |  | 0.879 |
| CCOC(=O)C1(Cc2ccccc2F)CCCN(C(=O)c2nccc3ccccc23)C1 (configuration not stated) |  | 0.014 |
| CCOc1ccccc1CN1CCN(Cc2cnc(C)s2)CC1CCO (configuration not stated) |  | 1.13 |
| Cc1cnc(CNC(=O)CCN2Cc3ccccc3OC(c3ccccc3F)C2)cn1 (configuration not stated) | 0.775 |  |
| CCOC(=O)C1CCCN(C2CCN(C(=O)CN3Cc4ccc(OC)cc4OC(C)C3)CC2)C1 (configuration not stated) | 0.859 |  |
| COCCN1CCCC2(CCN(C(=O)c3ccc(Cl)c(F)c3)C2)C1=O (configuration not stated) |  | 0.917 |
